Earlier results, collected in patent publication US9944634B2, “Pyrazolopyridine derivatives as TTX-S blockers” (RaQualia Pharma Inc., priority 2012, dated 2018).
Some results were stated once for a whole list of compounds, not compound by compound.

Test system: TTX-R and TTX-S sodium channels
Details: background art; range given for both anaesthetics together; cited from earlier work

SMILES	IC50 [mM]
FC(F)(F)C(Cl)Br (centres unmarked) [halothane]	0.05 to 10
CCN(CC)CC(=O)Nc1c(C)cccc1C [lidocaine]	0.05 to 10
